This is an account of results in patent publication US7198651B2, “Method of effecting a reversible color change of dyed hair” (Kao Corporation, priority 2003, dated 2007).

The nature of this series: Example II: dyeing of white goat hair, then colour change with acidic gel (pH 3) and alkaline cream. The following applies: for Delta E Colour Change: vs. original dyed colour. How it is done: The dye mixture can be applied to undamaged white goat hair at 50° C. for 15 min. or 30° C. for 30 min. Approximately 1 g of formulation A is used per gram of hair. After the completion of the dyeing time, the tresses may be rinsed with water, shampoo washed and then dried. The colour of the tresses can then be recorded. […] All of the dyes have the formula I, but only dyes within a certain pKa range are capable of reversible colour change of hair in which the hair changes to a second colour by treatment with the acidic formulation defined in Table 2. The dyeing solutions each had the following compositions: [table] The dye solution is applied in a 1:1 weight ratio to untreated white goat hair at 30° C. for 20 min. After this time, the tresses are shampoo rinsed, dried and the colour measured. The tresses were then run through the following protocol: • a. Acidic Gel (see Table 2a below) was applied in a ratio of 1 g per 1 g of hair tress for 1 min. • b. The hair tress was rinsed with water and dried, and the colour and delta E vs. the original dyed colour was then measured. • c. An alkaline cream (see Table 2b below) was applied in a ratio of 1 g per 1 g of the hair tress for 1 min. • d. The hair tress was rinsed and dried, and the colour and delta E vs. the original dyed colour was then measured. [table] [table]

The mark [1] stands for this setting: Acid Solution (acidic gel pH 3, 1 min).
Where [2] appears, read: Alkali Solution (alkaline cream, 1 min) after acid.
Setting [3] is: Dyed, 0.2% dye, pH 10, 30° C. 20 min.

Turning to `CC(=O)Nc1cc(/N=N/c2nncs2)ccc1O` [Dye 1], under setting [1], the L is reported as 51, the a stood at 56, the b was determined as 32 and the “Delta E Colour Change” value came to 14. Further, under setting [2], the L came out at 47, the a amounted to 60, the b amounted to 21 and the “Delta E Colour Change” value is 1. Under setting [3], this compound yielded an L of 46, an a of 60 and a b of 20.
Regarding `O=C(Nc1cc(/N=N/c2nc(-c3ccccc3)no2)c2ccccc2c1O)c1ccncc1` [Dye 2], under setting [1], the L is reported as 50, the a came to 35, the b is on record as 10 and the “Delta E Colour Change” value is 26. For the same compound, under setting [2], the L was 38, the a is reported as 49, the b is −7 and the “Delta E Colour Change” value is recorded as 2. Besides, under setting [3], the L is recorded as 36, the a came to 50 and the b is reported as −6.
On to `CS(=O)(=O)c1ccc(/N=N/c2ccc(O)c3ccccc23)c(C#N)c1` [Dye 3], for which, under setting [1], the L was determined as 29, the a came to 11, the b stood at 15 and the “Delta E Colour Change” value is 34. Moreover, under setting [2], the L is recorded as 20, the a stood at 12, the b is −17 and the “Delta E Colour Change” value was found to be 1. Under setting [3], this compound returned an L of 19, an a of 16 and a b of −17.
As to `CC(=O)Nc1cc(/N=N/c2ccc(S(C)(=O)=O)cc2C#N)c2ccccc2c1O` [Dye 4], under setting [1], the L was determined as 68, the a is −1, the b was 23 and the “Delta E Colour Change” value stood at 36. Further, under setting [2], the L stood at 59, the a was −9, the b is −9 and the “Delta E Colour Change” value stood at 2. Under setting [3], this compound came in with an L of 57, an a of −9 and a b of −10.
Consider `CSc1nnc(/N=N/c2ccc(O)c(NC(C)=O)c2)s1` [Dye 5], for which, under setting [1], the L was determined as 46, the a came out at 45, the b is listed as 20 and the “Delta E Colour Change” value is given as 23. Further, under setting [2], the L is on record as 37, the a is reported as 52, the b was −1 and the “Delta E Colour Change” value is listed as 1. Under setting [3], this compound yielded an L of 36, an a of 52 and a b of 0.
For the compound `CC(=O)Nc1cc(/N=N/c2nc3ccccc3s2)ccc1O` [Dye 6], under setting [1], the L was determined as 53, the a was 21, the b is reported as 20 and the “Delta E Colour Change” value is reported as 24. Under setting [2], the L came to 44, the a is given as 32, the b is −3 and the “Delta E Colour Change” value is 1. Under setting [3], the L stood at 44, the a came out at 32 and the b was −2.
As for `Oc1ccc(/N=N/c2nc3ccccc3s2)cc1Cl` [Dye 7], under setting [1], the L is given as 43, the a was found to be 57, the b stood at 25 and the “Delta E Colour Change” value was found to be 14. Under setting [2], the L was 38, the a worked out at 55, the b came out at 15 and the “Delta E Colour Change” value was determined as 2. Under setting [3], the L came to 36, the a is on record as 55 and the b amounted to 14.
With `CCSc1nnc(N=Nc2ccc(O)c3cccc(NS(C)(=O)=O)c23)s1` [Dye 8], under setting [1], the L stood at 52, the a amounted to 27, the b is −1 and the “Delta E Colour Change” value was 14. Besides, under setting [2], the L was determined as 45, the a worked out at 12, the b is −35 and the “Delta E Colour Change” value came to 3. For the same compound, under setting [3], the L is given as 44, the a came out at 12 and the b is listed as −37.
Regarding `CS(=O)(=O)Nc1cccc2c(O)ccc(N=Nc3nc4ccccc4s3)c12` [Dye 9], under setting [1], the L was 30, the a is 27, the b is given as −1 and the “Delta E Colour Change” value was determined as 35. Moreover, under setting [2], the L worked out at 25, the a amounted to 12, the b was −30 and the “Delta E Colour Change” value came to 3. Under setting [3], the L was 23, the a is on record as 12 and the b is reported as −32.
Regarding `CS(=O)(=O)Nc1cccc2c(O)ccc(/N=N/c3snc4ccc(S(N)(=O)=O)cc34)c12` [Dye 10], under setting [1], the L was found to be 49, the a was −18, the b is −12 and the “Delta E Colour Change” value was 15. Further, under setting [2], the L was 54, the a is given as −31, the b is on record as −5 and the “Delta E Colour Change” value is reported as 2. In addition, under setting [3], the L amounted to 52, the a is listed as −31 and the b is given as −5.
For `CCC(=O)Nc1cc(N=Nc2snc3ccc(S(N)(=O)=O)cc23)cc(Cl)c1O` [Dye 12], under setting [1], the L is reported as 44, the a is recorded as −2, the b is given as −1 and the “Delta E Colour Change” value turned out to be 30. Further, under setting [2], the L is reported as 41, the a was determined as 7, the b is on record as −27 and the “Delta E Colour Change” value came out at 3. Under setting [3], this compound showed an L of 39, an a of 7 and a b of −29.
As to `NS(=O)(=O)c1ccc2nsc(N=Nc3cc(Cl)c(O)cc3Cl)c2c1` [Dye 13], under setting [1], the L amounted to 32, the a was 11, the b was −14 and the “Delta E Colour Change” value is listed as 17. Moreover, under setting [2], the L is listed as 33, the a is recorded as 20, the b is on record as −27 and the “Delta E Colour Change” value stood at 2. Under setting [3], the L is on record as 31, the a is recorded as 20 and the b was −28.
For the compound `COCCOc1ccc(N=NC2C(=O)N(c3ccccc3)N=C2C(N)=O)cc1S(N)(=O)=O` (stereo not shown) [Dye 21], under setting [1], the L is 79, the a worked out at 3, the b worked out at 61 and the “Delta E Colour Change” value stood at 10. In addition, under setting [2], the L is listed as 84, the a is given as −4, the b is 58 and the “Delta E Colour Change” value was determined as 1. Under setting [3], this compound displayed an L of 84, an a of −5 and a b of 57.
Take `CCSc1nnc(/N=N/c2c(C(C)(C)C)nn3nc(C)[nH]c23)s1` [Dye 22]: under setting [1], the L came to 79, the a was found to be 2, the b is recorded as 89 and the “Delta E Colour Change” value is listed as 11. Also, under setting [2], the L is listed as 77, the a turned out to be 10, the b is recorded as 85 and the “Delta E Colour Change” value worked out at 2. Under setting [3], this compound registered an L of 77, an a of 12 and a b of 85.
